Laboratory results: PubChem BioAssay AID1159578 (Peter MacCallum Cancer Centre, 2015)

Purpose: 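siRNA pools altering how lymphatic endothelial cells close a scratch wound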 (primary screen)
System: human lymphatic endothelial cells
Knock-down reagent: siRNA pool against human genes, 40 nM
Timing: 48 h after transfection
Measured: 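Cells stained with dye and imaged after a scratch; covered wound area and nuclei counted, duplicates averaged, migration set against mock wells and turned into a robust z-score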
Reading the numbers: migration robust z-score: higher = faster migration into the scratch; migration relative to mock: higher = more scratch area covered than mock; nuclei per well: higher = more cells in the well
Rule for the call: 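Migration changed when robust z exceeds 2 or falls below -2 and mean nuclei number is at least 3300; otherwise not called changed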
Calls: active = migration changed; inactive = no migration change, or too few cells
In all, the deposit lists about 18,000 reagents; below is a random part of them. Of all reagents, about 1,030 (5.7%) are marked active. 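Inactive calls also include pools with fewer than 3300 nuclei, whose migration was not assessed.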 The raw values are shown without normalisation. Reagent sequences are not shown.

gene knocked down | migration robust z-score | migration class with cell-count check | migration relative to mock | nuclei per well, duplicate mean | call
TOGARAM1 (TOG array regulator of axonemal microtubules 1) | 1.44 | migration z between -2 and 2; enough cells | 1.26 | 6132 | inactive
NSG1 (neuronal vesicle trafficking associated 1) | -1.75 | migration z between -2 and 2; enough cells | 0.44 | 4526 | inactive
TMEM106C (transmembrane protein 106C) | -1.54 | migration z between -2 and 2; enough cells | 0.48 | 6819 | inactive
BOD1L1 (biorientation of chromosomes in cell division 1 like 1) | 0.6 | migration z between -2 and 2; enough cells | 1.03 | 5784 | inactive
EXOSC6 (exosome component 6) | -0.24 | migration z between -2 and 2; enough cells | 0.82 | 4186 | inactive
UXS1 (UDP-glucuronate decarboxylase 1) | -0.34 | migration z between -2 and 2; enough cells | 0.8 | 7003 | inactive
PCNP (PEST proteolytic signal containing nuclear protein) | 1.35 | migration z between -2 and 2; enough cells | 1.23 | 6011 | inactive
PDCD2L (programmed cell death 2 like) | -0.72 | migration z between -2 and 2; enough cells | 0.7 | 6712 | inactive
MCEE (methylmalonyl-CoA epimerase) | -0.84 | migration z between -2 and 2; enough cells | 0.64 | 3494 | inactive
IGSF9 (immunoglobulin superfamily member 9) | -0.76 | migration z between -2 and 2; enough cells | 0.68 | 5801 | inactive
CCZ1B (CCZ1B vacuolar protein trafficking and biogenesis associated) | 0.19 | migration z between -2 and 2; enough cells | 0.93 | 5178 | inactive
MAGED4B (MAGE family member D4B) | 0.34 | migration z between -2 and 2; enough cells | 0.98 | 6356 | inactive
OSBPL5 (oxysterol binding protein like 5) | -0.3 | migration z between -2 and 2; enough cells | 0.81 | 6012 | inactive
CRP (C-reactive protein) | 0.37 | migration z between -2 and 2; enough cells | 0.98 | 6158 | inactive
UGT1A1 (UDP glucuronosyltransferase family 1 member A1) | 0.13 | migration z between -2 and 2; enough cells | 0.83 | 4236 | inactive
SLC5A8 | 1.4 | migration z between -2 and 2; enough cells | 1.25 | 6424 | inactive
SLC6A13 | -1.58 | migration z between -2 and 2; enough cells | 0.5 | 5694 | inactive
RPS2 (ribosomal protein S2) | -3.22 | under 3300 nuclei; migration not judged | 0.18 | 2195 | inactive
CYP20A1 (cytochrome P450 family 20 subfamily A member 1) | -0.29 | migration z between -2 and 2; enough cells | 0.75 | 5086 | inactive
ACE2 (angiotensin converting enzyme 2) | 2.13 | migration z above 2; enough cells | 1.21 | 5839 | active
PRKAB2 (protein kinase AMP-activated non-catalytic subunit beta 2) | -0.32 | migration z between -2 and 2; enough cells | 0.74 | 4226 | inactive
LRPAP1 (LDL receptor related protein associated protein 1) | 1.12 | migration z between -2 and 2; enough cells | 1.02 | 6964 | inactive
CEBPG (CCAAT enhancer binding protein gamma) | -1.04 | migration z between -2 and 2; enough cells | 0.6 | 4658 | inactive
INAVA (innate immunity activator) | 2.5 | migration z above 2; enough cells | 1.53 | 5390 | active
PEX11G (peroxisomal biogenesis factor 11 gamma) | -1.99 | migration z between -2 and 2; enough cells | 0.36 | 3945 | inactive
C9orf72 (C9orf72-SMCR8 complex subunit) | -1.46 | migration z between -2 and 2; enough cells | 0.5 | 5588 | inactive
ZGPAT (zinc finger CCCH-type and G-patch domain containing) | -1.82 | migration z between -2 and 2; enough cells | 0.42 | 6109 | inactive
PAX4 (paired box 4) | 0.47 | migration z between -2 and 2; enough cells | 0.9 | 6253 | inactive
ANAPC4 (anaphase promoting complex subunit 4) | -1.12 | migration z between -2 and 2; enough cells | 0.59 | 5144 | inactive
CFAP53 (cilia and flagella associated protein 53) | 2.47 | migration z above 2; enough cells | 1.52 | 6934 | active
PCDHA1 (protocadherin alpha 1) | 0.16 | migration z between -2 and 2; enough cells | 0.92 | 5958 | inactive
SEMA7A (semaphorin 7A (JohnMiltonHagen blood group)) | 0.08 | migration z between -2 and 2; enough cells | 0.91 | 6078 | inactive

Part of the list above in another layout:
| gene knocked down | migration robust z-score | migration class with cell-count check | migration relative to mock | nuclei per well, duplicate mean | call |
| --- | --- | --- | --- | --- | --- |
| ZGPAT (zinc finger CCCH-type and G-patch domain containing) | -1.82 | migration z between -2 and 2; enough cells | 0.42 | 6109 | inactive |
| PAX4 (paired box 4) | 0.47 | migration z between -2 and 2; enough cells | 0.9 | 6253 | inactive |
| ANAPC4 (anaphase promoting complex subunit 4) | -1.12 | migration z between -2 and 2; enough cells | 0.59 | 5144 | inactive |
| CFAP53 (cilia and flagella associated protein 53) | 2.47 | migration z above 2; enough cells | 1.52 | 6934 | active |
| PCDHA1 (protocadherin alpha 1) | 0.16 | migration z between -2 and 2; enough cells | 0.92 | 5958 | inactive |
| SEMA7A (semaphorin 7A (JohnMiltonHagen blood group)) | 0.08 | migration z between -2 and 2; enough cells | 0.91 | 6078 | inactive |

Continued.
gene knocked down | migration robust z-score | migration class with cell-count check | migration relative to mock | nuclei per well, duplicate mean | call
TTLL9 (tubulin tyrosine ligase like 9) | -0.91 | migration z between -2 and 2; enough cells | 0.65 | 5405 | inactive
PPIL2 (peptidylprolyl isomerase like 2) | -1.17 | migration z between -2 and 2; enough cells | 0.58 | 5212 | inactive
ART5 (ADP-ribosyltransferase 5) | -0.86 | migration z between -2 and 2; enough cells | 0.64 | 5195 | inactive
KIAA2012 | 0.38 | migration z between -2 and 2; enough cells | 0.98 | 5892 | inactive
HS6ST2 (heparan sulfate 6-O-sulfotransferase 2) | 1.33 | migration z between -2 and 2; enough cells | 1.06 | 5584 | inactive
STAC2 (SH3 and cysteine rich domain 2) | -0.85 | migration z between -2 and 2; enough cells | 0.67 | 5646 | inactive
CNNM3 | 0.79 | migration z between -2 and 2; enough cells | 1.09 | 5964 | inactive
BCL11A (BCL11 transcription factor A) | -0.23 | migration z between -2 and 2; enough cells | 0.76 | 4968 | inactive
HESX1 (HESX homeobox 1) | -0.24 | migration z between -2 and 2; enough cells | 0.76 | 4119 | inactive
OR4A16 (olfactory receptor family 4 subfamily A member 16) | 0.72 | migration z between -2 and 2; enough cells | 1.07 | 5652 | inactive
JPT1 (Jupiter microtubule associated homolog 1) | 0.04 | migration z between -2 and 2; enough cells | 0.9 | 6530 | inactive
COX7B (cytochrome c oxidase subunit 7B) | 1.13 | migration z between -2 and 2; enough cells | 1.18 | 5494 | inactive
RENBP (renin binding protein) | -0.65 | migration z between -2 and 2; enough cells | 0.68 | 6616 | inactive
ZNHIT2 (zinc finger HIT-type containing 2) | 1.56 | migration z between -2 and 2; enough cells | 1.29 | 4919 | inactive
RDH5 (retinol dehydrogenase 5) | 0.08 | migration z between -2 and 2; enough cells | 0.9 | 8516 | inactive
ROBO3 (roundabout guidance receptor 3) | 0.22 | migration z between -2 and 2; enough cells | 0.94 | 6673 | inactive
CHGB (chromogranin B) | 0.12 | migration z between -2 and 2; enough cells | 0.92 | 5634 | inactive
PPP1R16B (protein phosphatase 1 regulatory subunit 16B) | 1.3 | migration z between -2 and 2; enough cells | 1.06 | 4798 | inactive
C12orf60 (chromosome 12 open reading frame 60) | 0.07 | migration z between -2 and 2; enough cells | 0.9 | 6402 | inactive
MUC7 (mucin 7, secreted) | -0.45 | migration z between -2 and 2; enough cells | 0.77 | 4871 | inactive
GEMIN5 (gem nuclear organelle associated protein 5) | 0.7 | migration z between -2 and 2; enough cells | 1.06 | 5564 | inactive
PRPF38A (pre-mRNA processing factor 38A) | 0.03 | migration z between -2 and 2; enough cells | 0.89 | 5745 | inactive
TLN2 (talin 2) | -0.07 | migration z between -2 and 2; enough cells | 0.87 | 6696 | inactive
TXNRD1 (thioredoxin reductase 1) | 0.07 | migration z between -2 and 2; enough cells | 0.9 | 7460 | inactive
FBXL20 (F-box and leucine rich repeat protein 20) | -1.25 | migration z between -2 and 2; enough cells | 0.56 | 4702 | inactive
PPP1R3F (protein phosphatase 1 regulatory subunit 3F) | -1.65 | migration z between -2 and 2; enough cells | 0.46 | 6558 | inactive
HLF (HLF transcription factor, PAR bZIP family member) | -0.98 | migration z between -2 and 2; enough cells | 0.63 | 4810 | inactive
NBPF9 (NBPF member 9) | -0.07 | migration z between -2 and 2; enough cells | 0.87 | 5406 | inactive
MAML3 (mastermind like transcriptional coactivator 3) | -0.29 | migration z between -2 and 2; enough cells | 0.81 | 4360 | inactive
GK (glycerol kinase) | 0.44 | migration z between -2 and 2; enough cells | 0.89 | 4525 | inactive
PAK2 (p21 (RAC1) activated kinase 2) | 0.65 | migration z between -2 and 2; enough cells | 0.93 | 5650 | inactive
STRN3 (striatin 3) | 0.26 | migration z between -2 and 2; enough cells | 0.95 | 5998 | inactive
STARD8 (StAR related lipid transfer domain containing 8) | -0.68 | migration z between -2 and 2; enough cells | 0.71 | 4962 | inactive
PCOLCE (procollagen C-endopeptidase enhancer) | 0.57 | migration z between -2 and 2; enough cells | 1.03 | 5405 | inactive
CD68 (CD68 molecule) | -1.52 | migration z between -2 and 2; enough cells | 0.49 | 4757 | inactive
APLN (apelin) | -1.33 | migration z between -2 and 2; enough cells | 0.54 | 5743 | inactive
INSRR (insulin receptor related receptor) | 1.09 | migration z between -2 and 2; enough cells | 1.02 | 6994 | inactive
NEK6 (NIMA related kinase 6) | -1.48 | migration z between -2 and 2; enough cells | 0.52 | 4742 | inactive
CRKL (CRK like proto-oncogene, adaptor protein) | 0 | migration z between -2 and 2; enough cells | 0.8 | 4796 | inactive
SNX17 (sorting nexin 17) | 0.74 | migration z between -2 and 2; enough cells | 1.08 | 6241 | inactive
LPAR2 (lysophosphatidic acid receptor 2) | -1.45 | migration z between -2 and 2; enough cells | 0.52 | 4807 | inactive
